Tested on: CC-46 monoclonal antibody
Experiment: Complexes attached per antibody (conjugation of Y-90 complex)
Conditions: 40:1 complex to antibody, NaCNBH3

Row | SMILES | average complexes per antibody [complexes per antibody]
1 | Nc1ccc(CC(CN(CCN(CC(=O)O)CC(=O)O)CC(=O)O)N(CC(=O)O)CC(=O)O)cc1 (centres unmarked) [ABDTPA, 1-(p-aminobenzyl)diethylenetriaminepentaacetic acid] | 5.0
2 | Nc1cc(CN(CCN(CC(=O)O)CC(=O)O)CC(=O)O)c(O)c(CN(CCN(CC(=O)O)CC(=O)O)CC(=O)O)c1 [Example 12] | 5.4

Reference: patent US5342604A (The Dow Chemical Company, priority 1992, dated 1994)
